Source: PubChem BioAssay AID540276 (National Center for Advancing Translational Sciences (NCATS), 2011)
The campaign covered roughly 300,000 compounds. About 5,400 (1.8%) were called active. The shares of active, inactive and inconclusive entries below differ from those in the screen. Calls follow the shape of the full dose curve; tested in HEK293 cells. Potencies of inconclusive entries are doubtful fits and often do not repeat.

Assay: qHTS for inhibitors of binding or entry into cells for Marburg Virus
Settings: Marburg virus pseudotyped entry inhibition, cell reporter; activity change, negative = inhibition: at 37.8 µM (top of the series) unless noted
% is scaled to controls: 0 for no effect and ±100 for the full control effect; potency is read from the fitted curve at half-maximal effect.

Compound | Potency | activity change, negative = inhibition
O=[N+]([O-])c1cccc(C(=S)N2CCN(c3ccc(F)cc3)CC2)c1 | inconclusive: 0.103 µM [inhibitor, full curve, poor fit] | –
CCOc1ccccc1C(=O)NCC(=O)OCC(=O)NCCc1ccc(S(N)(=O)=O)cc1 | inconclusive: 1.26 µM [activator, full curve, poor fit] | –
Cc1ccc(NC(=O)Cn2c(=O)n(Cc3ccc4c(c3)OCO4)c(=O)c3ccccc32)c(C)c1 | inconclusive: 5.62 µM [activator, single point] | –
CN(C(=O)CNC(=O)OCc1ccccc1)c1ccc(Br)cc1C(=O)c1ccccc1Cl | active: 5.8 µM | –
Cc1ccc(Cl)cc1NC(=O)CC1NCCNC1=O (stereo not given) | – | inactive: 3.49%
CC(=O)Nc1sc(NC(=O)c2ccccc2)nc1-c1cccs1 | – | inactive: -6.81%
COC(=O)C1C2c3ccccc3C(c3ccccc32)C1(C)C(=O)OC (stereo not given) | inconclusive: 2.51 µM [inhibitor, full curve] | –
O=C(NCCN1CCCCC1)c1ccc(Cn2c(SCc3cccc(F)c3)nc3cccnc32)cc1 | active: 4.47 µM | –
CC(=O)Nc1ccc(C(=O)Cn2nnc3ccccc3c2=O)cc1 | inconclusive: 25.9 µM [activator, single point] | –
COc1cccc(OCC(=O)N2CCN(C)CC2)c1 | – | inactive: -3.32%
COCCCNC(=S)NNC(=O)c1ccc(S(=O)(=O)N2CCC(C)CC2)cc1 | – | inactive: -0.655% [at 46.1 µM]
CC(C)Cn1c2c(c(=O)[nH]c1=O)C(C(F)(F)F)(C(F)(F)F)N=C(CCC1CCCCC1)N2 | inconclusive: 3.16 µM [inhibitor, full curve, poor fit] | –
O=C(Cc1ccccc1)N1CCN(c2ccc([N+](=O)[O-])cc2)CC1 | – | inactive: 1.38%
CCC1C(=O)N=C(SCC(=O)Nc2ccc(C)cc2)N(c2ccccc2)C1=O (stereo not given) | – | inactive: 6.9% [at 46.1 µM]
COc1cc(-c2nc(-c3cccc(Cl)c3)c(-c3ccccc3)[nH]2)cc(OC)c1OC | inconclusive: 35.5 µM [inhibitor, single point] | –
N#CCCn1cc(C(=O)Nc2ccccn2)c(-c2ccccc2)n1 | – | inactive: 3.28%
CCOC(=O)c1ccc2c(c1)nc(C1CCN(S(=O)(=O)c3cccs3)CC1)n2CC | inconclusive: 25.9 µM [inhibitor, single point] | –
CCOC(=O)N1CCN(C(=O)C2CCCN(S(=O)(=O)c3ccc(F)cc3)C2)CC1 (stereo not given) | – | inactive: -9.54%
CCN(CC)C(=O)Cn1cc(/C=C(\C#N)C(=O)N2CCN(c3ccccc3)CC2)c2ccccc21 | inconclusive: 18.3 µM [inhibitor, single point] | –
O=C(CNc1cccc(C(F)(F)F)c1)N/N=C/c1cccc(Br)c1 | inconclusive: 2.51 µM [activator, partial curve] | –
Cc1onc(-c2ccccc2)c1C(=O)N(Cc1ccco1)Cc1cccs1 | inconclusive: 11.2 µM [inhibitor, partial curve, poor fit] | –
O=C(CN1C(=O)c2ccccc2C1=O)Nc1nc(-c2cccc([N+](=O)[O-])c2)cs1 | – | inactive: 2.01%
CCn1c(=O)c(C(=O)NCc2cccnc2)c(O)c2ccccc21 | inconclusive: 5.8 µM [inhibitor, full curve, poor fit] | –

Of the compounds above, these have a cyano group.
Compound | Potency | activity change, negative = inhibition
N#CCCn1cc(C(=O)Nc2ccccn2)c(-c2ccccc2)n1 | – | inactive: 3.28%
CCN(CC)C(=O)Cn1cc(/C=C(\C#N)C(=O)N2CCN(c3ccccc3)CC2)c2ccccc21 | inconclusive: 18.3 µM [inhibitor, single point] | –

Remaining list, next part.

Compound | Potency | activity change, negative = inhibition
CN(C)/C=C/C(=O)c1cccc(Oc2ncccn2)c1 | inconclusive: 25.1 µM [activator, single point] | –
COc1ccccc1OCc1nc(-c2cccc([N+](=O)[O-])c2)no1 | inconclusive: 35.5 µM [inhibitor, single point] | –
Cc1ccc(SCC(=O)NC(C)(C)C)cc1 | – | inactive: 10.2%
CNC(=O)c1cccn1-c1ccsc1C(=O)OC | inconclusive: 6.31 µM [activator, single point] | –
CCCSc1nnc(NC(=O)Nc2ccc(C)cc2)s1 | inconclusive: 12.6 µM [inhibitor, single point] | –
Cn1c(=O)n(C)c2cc(S(=O)(=O)NCCOCCO)ccc21 | inconclusive: 0.461 µM [inhibitor, full curve, poor fit] | –
O=c1[nH]c(CCC2CCCC2)nc2ccccc12 | inconclusive: 0.461 µM [inhibitor, single point] | –
c1ccc(CSc2ccc(-c3ccc4c(c3)OCO4)nn2)cc1 | inconclusive: 3.16 µM [activator, partial curve] | –
CCCCn1c(N)c(N(CCOC)C(=O)c2cc(Cl)nc3ccccc23)c(=O)[nH]c1=O | – | inactive: -2.43%
O=C(NCc1ccco1)c1ccccc1Br | – | inactive: 10.7% [at 46.1 µM]
CC(C)C(NC(=O)Nc1ccccc1)C(=O)Nc1cccc(S(=O)(=O)N(C)C)c1 (stereo not given) | inconclusive: 2.24 µM [inhibitor, partial curve, poor fit] | –
Cc1ccc(C(=O)Nc2ccc3cn[nH]c3c2)cc1S(=O)(=O)N1CCCCC1 | inconclusive: 7.94 µM [activator, partial curve, poor fit] | –
N#Cc1nc(-c2ccc(Cl)cc2)oc1NCc1cccc2c1OCO2 | – | inactive: 7.75%
O=c1cc(N2CCCCC2)nc2n1CCCS2 | inconclusive: 4.11 µM [activator, partial curve, poor fit] | –
O=C(c1ccco1)N1c2ccccc2Sc2ccccc21 | active: 22.4 µM | –
S=C(Nc1ccc(Cl)cc1)Nc1cccc2cnccc12 | inconclusive: 3.66 µM [inhibitor, partial curve, poor fit] | –
CC1=Nc2cc(C(=O)NCCCOC(C)C)ccc2Sc2ccc(C)cc21 | inconclusive: 2.06 µM [inhibitor, full curve] | –
Cc1ccc(-n2c3c(cc(C(=O)NC4CCSC4=O)c2=O)C(=O)CCC3)cc1 (stereo not given) | inconclusive: 11.2 µM [inhibitor, partial curve, poor fit] | –
O=Cc1[nH]c2ccccc2c1N(C(=O)CCl)c1ccccc1 | inconclusive: 35.5 µM [inhibitor, single point] | –
O=S(=O)(c1ccc2c(c1)nc1n2CCC1)N1CCOCC1 | – | inactive: 23%
O=C1C(=Cc2ccco2)CCCC1=Cc1ccco1 | inconclusive: 3.55 µM [activator, partial curve, poor fit] | –
CCN(CC(=O)Nc1cc(Cl)ccc1C)C(=O)Cn1c(=O)cnc2ccccc21 | inconclusive: 3.16 µM [inhibitor, single point] | –
